Results are given in words; binding and its absence hold for the method and conditions named. Binding seen in cells or lysates may run through a third protein. Some entries that bind do so weakly or less than the wild type. For some assays here: Tags and fused reporters may be left off the sequences shown.
T1: SLU7-Flag (Flag-tagged human splicing factor synergistic lethal with U5 snRNA 7) (human) (UniProt O95391)
T1 sequence: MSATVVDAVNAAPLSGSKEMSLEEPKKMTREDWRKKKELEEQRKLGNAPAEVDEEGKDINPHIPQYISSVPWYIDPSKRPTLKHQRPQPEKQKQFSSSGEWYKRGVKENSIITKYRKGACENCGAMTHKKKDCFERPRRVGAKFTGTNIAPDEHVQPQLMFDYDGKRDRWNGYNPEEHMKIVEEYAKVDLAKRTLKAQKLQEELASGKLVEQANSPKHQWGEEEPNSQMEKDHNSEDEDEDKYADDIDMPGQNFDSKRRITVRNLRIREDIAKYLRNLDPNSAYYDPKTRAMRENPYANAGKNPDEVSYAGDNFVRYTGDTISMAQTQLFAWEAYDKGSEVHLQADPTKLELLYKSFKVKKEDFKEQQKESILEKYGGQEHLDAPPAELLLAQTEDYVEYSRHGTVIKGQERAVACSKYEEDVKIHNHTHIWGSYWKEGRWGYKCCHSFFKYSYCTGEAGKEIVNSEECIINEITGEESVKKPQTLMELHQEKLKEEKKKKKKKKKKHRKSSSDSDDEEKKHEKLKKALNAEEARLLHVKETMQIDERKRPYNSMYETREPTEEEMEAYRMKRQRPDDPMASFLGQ

Protein sequences, listed by entry. Tags and fused reporters are not part of them.
UniProt Q13283: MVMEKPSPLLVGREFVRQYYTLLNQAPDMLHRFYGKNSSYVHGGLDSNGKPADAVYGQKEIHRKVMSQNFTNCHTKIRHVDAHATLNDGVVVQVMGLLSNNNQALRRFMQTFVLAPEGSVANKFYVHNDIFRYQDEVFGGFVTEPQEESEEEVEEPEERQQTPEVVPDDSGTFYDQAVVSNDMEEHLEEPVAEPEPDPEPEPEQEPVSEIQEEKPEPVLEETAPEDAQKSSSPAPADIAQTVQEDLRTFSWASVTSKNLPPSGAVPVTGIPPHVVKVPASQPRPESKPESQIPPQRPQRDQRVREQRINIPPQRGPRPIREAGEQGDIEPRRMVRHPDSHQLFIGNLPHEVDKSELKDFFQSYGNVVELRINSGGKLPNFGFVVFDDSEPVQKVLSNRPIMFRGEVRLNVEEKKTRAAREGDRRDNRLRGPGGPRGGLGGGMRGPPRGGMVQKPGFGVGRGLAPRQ
UniProt Q04637: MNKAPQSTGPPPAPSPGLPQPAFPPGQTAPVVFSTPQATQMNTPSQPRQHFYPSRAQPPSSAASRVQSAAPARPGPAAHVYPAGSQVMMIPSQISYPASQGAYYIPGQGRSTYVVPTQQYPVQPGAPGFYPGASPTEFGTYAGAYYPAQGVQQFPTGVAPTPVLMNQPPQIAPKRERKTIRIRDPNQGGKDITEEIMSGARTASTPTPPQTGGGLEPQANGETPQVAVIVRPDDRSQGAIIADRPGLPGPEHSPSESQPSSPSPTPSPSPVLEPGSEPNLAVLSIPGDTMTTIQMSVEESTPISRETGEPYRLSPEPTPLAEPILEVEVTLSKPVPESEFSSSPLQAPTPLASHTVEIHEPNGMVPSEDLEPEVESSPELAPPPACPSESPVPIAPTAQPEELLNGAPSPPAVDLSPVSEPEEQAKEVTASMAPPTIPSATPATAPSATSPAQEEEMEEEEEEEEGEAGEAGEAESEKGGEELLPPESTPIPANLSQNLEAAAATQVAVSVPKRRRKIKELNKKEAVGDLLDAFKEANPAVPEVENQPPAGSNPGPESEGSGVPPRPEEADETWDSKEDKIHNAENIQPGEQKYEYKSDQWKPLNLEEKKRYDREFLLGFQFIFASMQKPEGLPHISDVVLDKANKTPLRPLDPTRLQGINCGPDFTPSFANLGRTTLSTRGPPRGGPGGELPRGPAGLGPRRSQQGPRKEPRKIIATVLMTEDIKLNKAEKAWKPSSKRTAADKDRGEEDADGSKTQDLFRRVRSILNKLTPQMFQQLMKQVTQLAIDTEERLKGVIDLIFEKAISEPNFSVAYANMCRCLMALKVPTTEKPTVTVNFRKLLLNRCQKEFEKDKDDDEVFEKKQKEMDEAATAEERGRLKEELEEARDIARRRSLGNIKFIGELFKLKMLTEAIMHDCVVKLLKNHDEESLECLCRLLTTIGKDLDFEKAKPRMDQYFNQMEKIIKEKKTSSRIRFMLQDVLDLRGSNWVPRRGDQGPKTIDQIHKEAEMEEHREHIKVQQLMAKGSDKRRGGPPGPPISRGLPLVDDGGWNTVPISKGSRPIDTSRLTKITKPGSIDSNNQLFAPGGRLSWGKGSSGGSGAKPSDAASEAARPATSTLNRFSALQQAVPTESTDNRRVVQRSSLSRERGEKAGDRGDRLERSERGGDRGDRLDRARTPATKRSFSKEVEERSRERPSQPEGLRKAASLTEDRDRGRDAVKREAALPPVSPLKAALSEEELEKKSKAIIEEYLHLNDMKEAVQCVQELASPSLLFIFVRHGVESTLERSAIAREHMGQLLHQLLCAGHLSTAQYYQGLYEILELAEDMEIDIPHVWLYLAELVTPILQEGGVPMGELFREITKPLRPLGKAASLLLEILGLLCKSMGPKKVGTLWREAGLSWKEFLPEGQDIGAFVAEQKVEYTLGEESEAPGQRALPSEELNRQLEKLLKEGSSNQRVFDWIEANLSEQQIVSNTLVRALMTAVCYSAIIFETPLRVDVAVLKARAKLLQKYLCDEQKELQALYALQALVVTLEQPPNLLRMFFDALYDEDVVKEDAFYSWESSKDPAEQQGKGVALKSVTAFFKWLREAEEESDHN
UniProt P11940: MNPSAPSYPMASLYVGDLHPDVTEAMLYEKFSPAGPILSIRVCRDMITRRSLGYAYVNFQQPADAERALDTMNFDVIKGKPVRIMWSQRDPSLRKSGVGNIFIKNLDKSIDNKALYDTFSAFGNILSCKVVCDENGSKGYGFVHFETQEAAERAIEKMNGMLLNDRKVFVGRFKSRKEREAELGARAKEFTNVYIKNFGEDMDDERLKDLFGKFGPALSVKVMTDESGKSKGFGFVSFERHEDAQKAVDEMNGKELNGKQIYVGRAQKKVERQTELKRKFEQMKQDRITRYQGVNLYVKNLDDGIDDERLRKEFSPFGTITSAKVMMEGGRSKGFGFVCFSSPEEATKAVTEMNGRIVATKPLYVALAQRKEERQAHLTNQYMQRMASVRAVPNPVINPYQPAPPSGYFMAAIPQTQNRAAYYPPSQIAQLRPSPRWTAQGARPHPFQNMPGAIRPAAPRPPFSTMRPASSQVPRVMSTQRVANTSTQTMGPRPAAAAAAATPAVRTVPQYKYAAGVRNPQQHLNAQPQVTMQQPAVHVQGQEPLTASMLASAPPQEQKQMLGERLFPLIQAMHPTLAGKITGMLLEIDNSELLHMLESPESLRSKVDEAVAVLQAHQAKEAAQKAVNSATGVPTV


Key:
[1] = target: T1, SLU7-Flag (Flag-tagged human splicing factor synergistic lethal with U5 snRNA 7) (human); assay: co-IP; re-IP: lysates of UMUC3 cells stably expressing both SLU7-Flag and HA-G3BP1; first IP with anti-Flag antibody, 15 µg/mL Flag peptide for 2 h at 4 °C, then re-IP with anti-HA antibody; western blot
[2] = target: T1, SLU7-Flag (Flag-tagged human splicing factor synergistic lethal with U5 snRNA 7) (human); assay: co-IP; lysates (RIPA buffer) of cells stably expressing SLU7-Flag or HA-G3BP1; anti-Flag or anti-HA antibody overnight at 4 °C, protein A/G magnetic beads 2 h at 4 °C, eight washes with RIPA buffer; western blot
[3] = target: HA-G3BP1 (HA-tagged human Ras GTPase-activating protein-binding protein 1) (human) (UniProt Q13283); assay: as above
[4] = target: HA-G3BP1 (HA-tagged human Ras GTPase-activating protein-binding protein 1) (human) (UniProt Q13283); assay: co-IP; re-IP: lysates of UMUC3 cells stably expressing both SLU7-Flag and HA-G3BP1; first IP with anti-Flag antibody, 15 µg/mL Flag peptide for 2 h at 4 °C, then re-IP with anti-HA antibody; western blot
[5] = target: endogenous G3BP1 (human (endogenous in UMUC3 and T24)) (UniProt Q13283); assay: proximity ligation; Duolink in situ PLA on fixed, permeabilised UMUC3 and T24 cells with antibodies against SLU7 and G3BP1 (endogenous proteins)

Row | Molecule | binding [3] | binding [4] | further results
1 | HA-G3BP1 (HA-tagged human Ras GTPase-activating protein-binding protein 1) (from UniProt Q13283 1-466) | – | – | binding [1]: binds
2 | endogenous G3BP1 (from UniProt Q13283 1-466) | – | – | binding [2]: binds
3 | eukaryotic translation initiation factor 4 gamma 1 (eIF4G1), endogenous (from UniProt Q04637 1-1599) | binds | binds | –

Second part, led by results:

Row | binding [3] | binding [4] | Molecule | further results
4 | binds | binds | poly(A)-binding protein cytoplasmic 1 (PABPC1), endogenous (from UniProt P11940 1-636) | –
5 | binds | – | endogenous SLU7 (protein, UniProt O95391 1-586) MSATVVDAVNAAPLSGSKEMSLEEPKKMTREDWRKKKELEEQRKLGNAPAEVDEEGKDINPHIPQYISSVPWYIDPSKRPTLKHQRPQPEKQKQFSSSGEWYKRGVKENSIITKYRKGACENCGAMTHKKKDCFERPRRVGAKFTGTNIAPDEHVQPQLMFDYDGKRDRWNGYNPEEHMKIVEEYAKVDLAKRTLKAQKLQEELASGKLVEQANSPKHQWGEEEPNSQMEKDHNSEDEDEDKYADDIDMPGQNFDSKRRITVRNLRIREDIAKYLRNLDPNSAYYDPKTRAMRENPYANAGKNPDEVSYAGDNFVRYTGDTISMAQTQLFAWEAYDKGSEVHLQADPTKLELLYKSFKVKKEDFKEQQKESILEKYGGQEHLDAPPAELLLAQTEDYVEYSRHGTVIKGQERAVACSKYEEDVKIHNHTHIWGSYWKEGRWGYKCCHSFFKYSYCTGEAGKEIVNSEECIINEITGEESVKKPQTLMELHQEKLKEEKKKKKKKKKKHRKSSSDSDDEEKKHEKLKKALNAEEARLLHVKETMQIDERKRPYNSMYETREPTEEEMEAYRMKRQRPDDPMASFLGQ | binding [5]: binds
